Like-named read-outs stand apart in the source and are kept apart here. Results are given in words; binding and its absence hold for the method and conditions named. Binding seen in cells or lysates may run through a third protein. Here binding means that the protein was enriched with, or labelled near, the bait; the list need not be complete. Where a sequence is shown, tags or fusion partners need not be part of it.
T1: C-terminal FLAG-tagged mouse WDR72 (WD repeat-containing protein 72) (mouse) (UniProt D3YYM4)
T1 sequence: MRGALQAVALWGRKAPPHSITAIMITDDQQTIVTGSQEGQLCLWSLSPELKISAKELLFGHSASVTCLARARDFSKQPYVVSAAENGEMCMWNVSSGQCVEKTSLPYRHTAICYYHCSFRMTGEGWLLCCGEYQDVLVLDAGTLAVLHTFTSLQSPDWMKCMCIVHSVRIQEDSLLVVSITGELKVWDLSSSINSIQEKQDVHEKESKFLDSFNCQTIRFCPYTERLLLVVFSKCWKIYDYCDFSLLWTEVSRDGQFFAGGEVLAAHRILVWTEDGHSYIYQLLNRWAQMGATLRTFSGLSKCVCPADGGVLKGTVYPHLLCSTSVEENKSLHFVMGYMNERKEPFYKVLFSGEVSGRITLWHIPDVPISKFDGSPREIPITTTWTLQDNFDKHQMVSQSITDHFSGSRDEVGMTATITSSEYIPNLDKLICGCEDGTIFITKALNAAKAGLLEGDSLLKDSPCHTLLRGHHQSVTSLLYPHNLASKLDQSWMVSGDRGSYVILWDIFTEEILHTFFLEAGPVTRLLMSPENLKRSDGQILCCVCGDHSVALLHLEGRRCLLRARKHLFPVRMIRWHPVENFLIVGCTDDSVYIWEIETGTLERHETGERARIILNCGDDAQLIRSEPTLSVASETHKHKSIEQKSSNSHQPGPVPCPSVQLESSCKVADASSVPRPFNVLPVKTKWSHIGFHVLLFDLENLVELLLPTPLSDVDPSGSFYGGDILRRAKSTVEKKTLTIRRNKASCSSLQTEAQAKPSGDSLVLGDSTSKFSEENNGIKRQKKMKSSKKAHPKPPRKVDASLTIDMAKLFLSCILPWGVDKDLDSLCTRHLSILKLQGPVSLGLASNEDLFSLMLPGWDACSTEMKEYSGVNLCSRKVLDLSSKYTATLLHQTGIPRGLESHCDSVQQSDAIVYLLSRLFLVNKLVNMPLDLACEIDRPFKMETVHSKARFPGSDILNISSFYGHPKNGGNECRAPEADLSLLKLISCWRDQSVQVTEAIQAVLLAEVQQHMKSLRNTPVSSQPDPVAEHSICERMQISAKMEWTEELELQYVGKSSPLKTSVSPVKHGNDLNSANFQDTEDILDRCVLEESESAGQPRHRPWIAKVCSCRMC

Protein sequences, listed by entry. Tags and fused reporters are not part of them. Residues count along the entry.
UniProt Q00610: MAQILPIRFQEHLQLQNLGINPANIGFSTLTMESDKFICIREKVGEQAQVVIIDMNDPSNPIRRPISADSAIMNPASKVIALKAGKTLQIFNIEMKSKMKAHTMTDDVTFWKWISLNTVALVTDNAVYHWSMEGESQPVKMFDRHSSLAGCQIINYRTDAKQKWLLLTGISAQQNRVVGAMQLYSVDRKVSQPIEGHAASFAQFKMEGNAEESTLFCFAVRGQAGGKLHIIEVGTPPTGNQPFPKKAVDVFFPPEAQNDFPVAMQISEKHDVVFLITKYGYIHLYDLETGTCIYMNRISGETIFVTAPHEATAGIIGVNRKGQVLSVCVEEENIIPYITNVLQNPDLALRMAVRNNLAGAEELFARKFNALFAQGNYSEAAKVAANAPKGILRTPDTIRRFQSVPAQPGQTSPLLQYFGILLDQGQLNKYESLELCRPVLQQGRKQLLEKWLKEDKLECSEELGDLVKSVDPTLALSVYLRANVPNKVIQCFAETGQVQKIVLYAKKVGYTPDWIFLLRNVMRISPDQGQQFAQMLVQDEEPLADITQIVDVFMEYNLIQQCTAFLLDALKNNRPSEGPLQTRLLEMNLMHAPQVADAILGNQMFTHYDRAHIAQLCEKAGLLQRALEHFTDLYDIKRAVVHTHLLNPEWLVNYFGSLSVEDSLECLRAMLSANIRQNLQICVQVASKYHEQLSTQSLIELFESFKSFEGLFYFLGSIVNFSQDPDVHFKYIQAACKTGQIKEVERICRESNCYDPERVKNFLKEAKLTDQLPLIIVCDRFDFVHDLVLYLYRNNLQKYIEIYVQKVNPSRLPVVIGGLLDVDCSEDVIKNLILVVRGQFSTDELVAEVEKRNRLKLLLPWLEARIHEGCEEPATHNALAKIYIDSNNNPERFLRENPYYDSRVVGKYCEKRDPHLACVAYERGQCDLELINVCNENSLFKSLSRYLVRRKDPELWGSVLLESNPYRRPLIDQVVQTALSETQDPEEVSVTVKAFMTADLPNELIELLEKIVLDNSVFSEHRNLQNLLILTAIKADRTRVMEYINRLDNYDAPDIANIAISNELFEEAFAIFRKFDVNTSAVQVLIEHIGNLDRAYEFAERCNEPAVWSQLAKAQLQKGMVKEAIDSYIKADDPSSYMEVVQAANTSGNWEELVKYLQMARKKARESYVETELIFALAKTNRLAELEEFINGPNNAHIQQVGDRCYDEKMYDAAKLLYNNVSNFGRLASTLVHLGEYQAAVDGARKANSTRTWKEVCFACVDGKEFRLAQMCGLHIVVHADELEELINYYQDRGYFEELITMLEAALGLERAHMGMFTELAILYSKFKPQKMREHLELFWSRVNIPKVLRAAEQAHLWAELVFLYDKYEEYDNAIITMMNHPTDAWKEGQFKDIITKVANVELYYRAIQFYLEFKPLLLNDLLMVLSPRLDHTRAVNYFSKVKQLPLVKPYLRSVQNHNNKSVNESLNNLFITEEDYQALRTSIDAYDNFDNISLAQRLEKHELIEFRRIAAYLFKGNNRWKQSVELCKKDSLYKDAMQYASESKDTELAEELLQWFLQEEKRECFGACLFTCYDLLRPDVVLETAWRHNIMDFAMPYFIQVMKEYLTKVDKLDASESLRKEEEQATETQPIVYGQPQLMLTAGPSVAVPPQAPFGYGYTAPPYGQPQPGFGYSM
UniProt P11021, residues 19-654: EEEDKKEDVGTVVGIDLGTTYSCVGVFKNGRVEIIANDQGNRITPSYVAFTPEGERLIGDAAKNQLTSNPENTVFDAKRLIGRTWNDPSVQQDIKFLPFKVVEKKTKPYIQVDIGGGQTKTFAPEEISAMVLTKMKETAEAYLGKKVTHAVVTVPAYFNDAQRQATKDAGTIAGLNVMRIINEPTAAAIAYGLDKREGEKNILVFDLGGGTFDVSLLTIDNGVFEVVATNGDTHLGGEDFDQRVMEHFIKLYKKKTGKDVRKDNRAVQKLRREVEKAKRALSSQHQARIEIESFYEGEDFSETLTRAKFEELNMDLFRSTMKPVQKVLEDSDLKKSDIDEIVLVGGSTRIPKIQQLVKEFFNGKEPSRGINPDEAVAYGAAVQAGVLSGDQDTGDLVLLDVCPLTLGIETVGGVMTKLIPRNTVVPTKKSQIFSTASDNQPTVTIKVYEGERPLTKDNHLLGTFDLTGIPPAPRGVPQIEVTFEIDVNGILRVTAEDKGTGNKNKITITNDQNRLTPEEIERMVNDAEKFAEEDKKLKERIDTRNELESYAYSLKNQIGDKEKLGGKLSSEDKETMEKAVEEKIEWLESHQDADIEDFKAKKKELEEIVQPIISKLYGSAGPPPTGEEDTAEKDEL
UniProt P38646, residues 47-679: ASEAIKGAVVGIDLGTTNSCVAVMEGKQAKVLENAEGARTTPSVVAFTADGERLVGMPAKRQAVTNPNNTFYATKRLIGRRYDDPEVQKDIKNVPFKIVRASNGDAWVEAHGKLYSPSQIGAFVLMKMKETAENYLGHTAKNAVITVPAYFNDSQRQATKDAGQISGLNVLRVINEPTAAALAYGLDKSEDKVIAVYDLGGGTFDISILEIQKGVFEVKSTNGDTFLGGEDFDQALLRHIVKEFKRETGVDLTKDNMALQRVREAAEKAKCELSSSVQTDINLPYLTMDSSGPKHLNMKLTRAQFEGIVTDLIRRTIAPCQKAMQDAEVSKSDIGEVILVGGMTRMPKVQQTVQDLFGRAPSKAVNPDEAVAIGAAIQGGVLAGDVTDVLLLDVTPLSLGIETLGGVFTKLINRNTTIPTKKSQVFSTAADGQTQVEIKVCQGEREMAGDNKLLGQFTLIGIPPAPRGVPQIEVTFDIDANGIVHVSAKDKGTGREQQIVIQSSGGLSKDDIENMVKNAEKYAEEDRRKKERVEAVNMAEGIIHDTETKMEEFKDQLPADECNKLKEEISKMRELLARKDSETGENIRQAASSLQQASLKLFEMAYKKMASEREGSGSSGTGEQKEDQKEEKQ
UniProt Q13435: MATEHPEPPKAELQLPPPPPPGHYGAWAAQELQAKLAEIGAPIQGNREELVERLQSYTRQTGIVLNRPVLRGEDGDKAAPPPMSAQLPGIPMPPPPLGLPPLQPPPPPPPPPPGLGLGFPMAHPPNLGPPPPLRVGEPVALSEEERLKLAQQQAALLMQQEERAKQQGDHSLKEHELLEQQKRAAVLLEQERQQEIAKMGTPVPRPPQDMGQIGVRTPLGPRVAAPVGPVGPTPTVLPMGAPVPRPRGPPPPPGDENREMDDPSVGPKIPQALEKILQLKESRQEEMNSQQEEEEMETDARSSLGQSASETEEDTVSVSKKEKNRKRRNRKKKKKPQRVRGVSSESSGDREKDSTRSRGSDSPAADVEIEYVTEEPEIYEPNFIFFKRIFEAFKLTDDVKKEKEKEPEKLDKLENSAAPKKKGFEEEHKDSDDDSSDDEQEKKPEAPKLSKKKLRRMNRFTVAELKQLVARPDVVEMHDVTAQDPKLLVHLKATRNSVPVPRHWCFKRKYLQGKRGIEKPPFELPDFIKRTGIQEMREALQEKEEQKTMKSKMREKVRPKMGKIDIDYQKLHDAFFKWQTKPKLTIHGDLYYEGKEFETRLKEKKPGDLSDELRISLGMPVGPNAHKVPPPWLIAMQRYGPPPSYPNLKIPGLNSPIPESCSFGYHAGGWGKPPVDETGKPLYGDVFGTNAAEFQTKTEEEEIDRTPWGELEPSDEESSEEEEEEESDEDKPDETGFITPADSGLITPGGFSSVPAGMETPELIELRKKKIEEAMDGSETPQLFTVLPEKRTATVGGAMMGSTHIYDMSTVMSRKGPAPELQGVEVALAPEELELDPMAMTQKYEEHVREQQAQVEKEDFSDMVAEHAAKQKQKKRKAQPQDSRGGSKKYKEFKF
UniProt P22314: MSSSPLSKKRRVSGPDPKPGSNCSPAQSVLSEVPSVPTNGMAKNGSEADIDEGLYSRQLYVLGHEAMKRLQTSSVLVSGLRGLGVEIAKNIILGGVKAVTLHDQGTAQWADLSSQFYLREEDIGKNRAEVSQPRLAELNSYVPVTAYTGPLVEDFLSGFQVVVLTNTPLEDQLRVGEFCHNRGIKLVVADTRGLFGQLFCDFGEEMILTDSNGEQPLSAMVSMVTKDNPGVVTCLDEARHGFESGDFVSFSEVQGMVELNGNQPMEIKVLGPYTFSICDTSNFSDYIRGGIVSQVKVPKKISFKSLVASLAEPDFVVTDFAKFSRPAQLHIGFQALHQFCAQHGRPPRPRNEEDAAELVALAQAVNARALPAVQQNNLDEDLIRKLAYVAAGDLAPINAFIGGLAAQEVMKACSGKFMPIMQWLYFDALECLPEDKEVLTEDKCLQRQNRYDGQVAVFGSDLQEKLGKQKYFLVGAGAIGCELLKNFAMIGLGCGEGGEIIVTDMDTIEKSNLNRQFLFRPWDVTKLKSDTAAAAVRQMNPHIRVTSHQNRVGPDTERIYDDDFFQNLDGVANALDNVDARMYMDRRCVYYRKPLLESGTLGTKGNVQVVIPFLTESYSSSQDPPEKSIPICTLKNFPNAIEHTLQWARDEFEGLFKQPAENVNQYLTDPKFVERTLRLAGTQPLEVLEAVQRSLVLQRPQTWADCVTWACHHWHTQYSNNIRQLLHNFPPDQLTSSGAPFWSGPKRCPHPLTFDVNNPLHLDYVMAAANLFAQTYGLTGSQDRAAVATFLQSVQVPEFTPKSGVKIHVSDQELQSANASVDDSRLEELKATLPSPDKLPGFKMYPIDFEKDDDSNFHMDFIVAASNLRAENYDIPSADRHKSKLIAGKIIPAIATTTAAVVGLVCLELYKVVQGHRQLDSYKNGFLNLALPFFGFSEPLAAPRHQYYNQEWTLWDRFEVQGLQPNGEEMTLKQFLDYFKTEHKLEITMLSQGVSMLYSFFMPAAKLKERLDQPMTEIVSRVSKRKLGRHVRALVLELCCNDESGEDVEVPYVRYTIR
UniProt P07814: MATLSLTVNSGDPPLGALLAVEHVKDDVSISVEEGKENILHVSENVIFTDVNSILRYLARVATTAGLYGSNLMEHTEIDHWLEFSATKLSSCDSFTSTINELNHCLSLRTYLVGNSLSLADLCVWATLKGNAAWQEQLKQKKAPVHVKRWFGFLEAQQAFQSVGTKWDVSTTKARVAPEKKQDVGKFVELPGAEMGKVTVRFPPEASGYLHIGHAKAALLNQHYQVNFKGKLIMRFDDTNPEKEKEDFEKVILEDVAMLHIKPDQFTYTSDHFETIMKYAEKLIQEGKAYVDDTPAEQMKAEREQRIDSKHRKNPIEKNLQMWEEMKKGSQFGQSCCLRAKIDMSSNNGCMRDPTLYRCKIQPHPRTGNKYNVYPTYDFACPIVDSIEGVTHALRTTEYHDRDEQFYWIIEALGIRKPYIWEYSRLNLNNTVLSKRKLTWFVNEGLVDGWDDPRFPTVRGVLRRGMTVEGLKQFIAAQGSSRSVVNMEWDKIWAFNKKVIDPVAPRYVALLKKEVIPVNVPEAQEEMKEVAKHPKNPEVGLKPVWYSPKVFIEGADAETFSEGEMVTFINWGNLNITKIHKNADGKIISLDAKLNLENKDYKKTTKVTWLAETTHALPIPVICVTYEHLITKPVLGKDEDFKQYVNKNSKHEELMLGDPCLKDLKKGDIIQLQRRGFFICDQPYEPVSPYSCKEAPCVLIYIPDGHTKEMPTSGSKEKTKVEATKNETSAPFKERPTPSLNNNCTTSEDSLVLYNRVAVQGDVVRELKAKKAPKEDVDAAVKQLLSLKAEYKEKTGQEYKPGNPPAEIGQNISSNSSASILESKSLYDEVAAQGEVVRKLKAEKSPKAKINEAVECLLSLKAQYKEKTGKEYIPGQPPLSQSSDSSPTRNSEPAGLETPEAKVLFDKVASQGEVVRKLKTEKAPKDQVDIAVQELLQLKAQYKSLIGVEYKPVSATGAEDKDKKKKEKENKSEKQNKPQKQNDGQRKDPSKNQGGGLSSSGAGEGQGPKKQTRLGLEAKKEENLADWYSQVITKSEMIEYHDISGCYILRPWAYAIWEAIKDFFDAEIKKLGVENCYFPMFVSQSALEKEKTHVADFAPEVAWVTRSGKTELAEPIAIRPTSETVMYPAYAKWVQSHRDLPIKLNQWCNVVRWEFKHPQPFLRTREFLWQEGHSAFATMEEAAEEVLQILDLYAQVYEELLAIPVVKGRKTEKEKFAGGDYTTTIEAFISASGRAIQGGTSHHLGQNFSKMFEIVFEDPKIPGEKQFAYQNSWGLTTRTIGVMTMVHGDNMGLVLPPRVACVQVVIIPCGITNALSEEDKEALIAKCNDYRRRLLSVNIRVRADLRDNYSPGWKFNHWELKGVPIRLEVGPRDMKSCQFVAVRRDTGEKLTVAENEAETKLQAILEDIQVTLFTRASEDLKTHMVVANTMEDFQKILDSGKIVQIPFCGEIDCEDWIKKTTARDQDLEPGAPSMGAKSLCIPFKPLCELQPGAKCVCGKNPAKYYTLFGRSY


Tests used:
[1] = biological target: T1, C-terminal FLAG-tagged mouse WDR72 (WD repeat-containing protein 72) (mouse); test: affinity purification with mass spectrometry; C-terminal FLAG-tagged mouse WDR72 overexpressed in HEK293; NP40 lysate; anti-FLAG antibody on protein A Dynabeads, 30 min at room temperature, washed twice; six CBB-stained bands cut from the SDS-PAGE gel, trypsin, LC-MS/MS
[2] = biological target: T1, C-terminal FLAG-tagged mouse WDR72 (WD repeat-containing protein 72) (mouse); test: as above; remark: listed apart in the source

Molecule	binding [1]	binding [2]
CLTC (from UniProt Q00610 1-1675)	binds	
XRCC6 (from UniProt P12956 1-609)	binds	
AP2A1 (from UniProt O95782 1-977)	binds	
HSPA5 (from UniProt P11021 19-654)	binds	
HSPA9 (from UniProt P38646 47-679)	binds	
SF3B2 (from UniProt Q13435 1-895)	binds	
RAD50 (from UniProt Q92878 1-1312)	binds	
XRN1 (from UniProt Q8IZH2 1-1706)	binds	
DDX5 (from UniProt P17844 1-614)	binds	
HSPA6 (from UniProt P17066 1-643)	binds	
SF3B3 (from UniProt Q15393 1-1217)	binds	
CDC5L (from UniProt Q99459 1-802)	binds	
UBA1 (ubiquitin-like modifier activating enzyme 1) (from UniProt P22314 1-1058)	binds	
HSPA1L (from UniProt P34931 1-641)	binds	
PRKDC (from UniProt P78527 1-4128)	binds	
CNOT1 (from UniProt A5YKK6 1-2376)	binds	
SF3B1 (from UniProt O75533 1-1304)	binds	
HNRNPM (protein, UniProt P52272 1-730) MAAGVEAAAEVAATEIKMEEESGAPGVPSGNGAPGPKGEGERPAQNEKRKEKNIKRGGNRFEPYANPTKRYRAFITNIPFDVKWQSLKDLVKEKVGEVTYVELLMDAEGKSRGCAVVEFKMEESMKKAAEVLNKHSLSGRPLKVKEDPDGEHARRAMQKVMATTGGMGMGPGGPGMITIPPSILNNPNIPNEIIHALQAGRLGSTVFVANLDYKVGWKKLKEVFSMAGVVVRADILEDKDGKSRGIGTVTFEQSIEAVQAISMFNGQLLFDRPMHVKMDERALPKGDFFPPERPQQLPHGLGGIGMGLGPGGQPIDANHLNKGIGMGNIGPAGMGMEGIGFGINKMGGMEGPFGGGMENMGRFGSGMNMGRINEILSNALKRGEIIAKQGGGGGGGSVPGIERMGPGIDRLGGAGMERMGAGLGHGMDRVGSEIERMGLVMDRMGSVERMGSGIERMGPLGLDHMASSIERMGQTMERIGSGVERMGAGMGFGLERMAAPIDRVGQTIERMGSGVERMGPAIERMGLSMERMVPAGMGAGLERMGPVMDRMATGLERMGANNLERMGLERMGANSLERMGLERMGANSLERMGPAMGPALGAGIERMGLAMGGGGGASFDRAIEMERGNFGGSFAGSFGGAGGHAPGVARKACQIFVRNLPFDFTWKMLKDKFNECGHVLYADIKMENGKSKGCGVVKFESPEVAERACRMMNGMKLSGREIDVRIDRNA		binds

More lines, now with the values ahead:

binding [1]	binding [2]	Molecule
binds		ACLY (from UniProt P53396 1-1101)
binds		HSPA1A (from UniProt P0DMV8 1-641)
binds		KARS (from UniProt Q15046 1-597)
binds		SNRNP200 (from UniProt O75643 1-2136)
binds		LARS (from UniProt Q9P2J5 1-1176)
binds		EPRS (from UniProt P07814 1-1512)
binds		AP2B1 (from UniProt P63010 1-937)
binds		HSPA8 (from UniProt P11142 1-646)
	binds	SART1 (protein, UniProt O43290 1-800) MGSSKKHRGEKEAAGTTAAAGTGGATEQPPRHREHKKHKHRSGGSGGSGGERRKRSRERGGERGSGRRGAEAEARSSTHGRERSQAEPSERRVKREKRDDGYEAAASSKTSSGDASSLSIEETNKLRAKLGLKPLEVNAIKKEAGTKEEPVTADVINPMALRQREELREKLAAAKEKRLLNQKLGKIKTLGEDDPWLDDTAAWIERSRQLQKEKDLAEKRAKLLEEMDQEFGVSTLVEEEFGQRRQDLYSARDLQGLTVEHAIDSFREGETMILTLKDKGVLQEEEDVLVNVNLVDKERAEKNVELRKKKPDYLPYAEDESVDDLAQQKPRSILSKYDEELEGERPHSFRLEQGGTADGLRERELEEIRAKLRLQAQSLSTVGPRLASEYLTPEEMVTFKKTKRRVKKIRKKEKEVVVRADDLLPLGDQTQDGDFGSRLRGRGRRRVSEVEEEKEPVPQPLPSDDTRVENMDISDEEEGGAPPPGSPQVLEEDEAELELQKQLEKGRRLRQLQQLQQLRDSGEKVVEIVKKLESRQRGWEEDEDPERKGAIVFNATSEFCRTLGEIPTYGLAGNREEQEELMDFERDEERSANGGSESDGEENIGWSTVNLDEEKQQQDFSASSTTILDEEPIVNRGLAAALLLCQNKGLLETTVQKVARVKAPNKSLPSAVYCIEDKMAIDDKYSRREEYRGFTQDFKEKDGYKPDVKIEYVDETGRKLTPKEAFRQLSHRFHGKGSGKMKTERRMKKLDEEALLKKMSSSDTPLGTVALLQEKQKAQKTPYIVLSGSGKSMNANTITK
	binds	PRPF6 (protein, UniProt O94906 1-941) MNKKKKPFLGMPAPLGYVPGLGRGATGFTTRSDIGPARDANDPVDDRHAPPGKRTVGDQMKKNQAADDDDEDLNDTNYDEFNGYAGSLFSSGPYEKDDEEADAIYAALDKRMDERRKERREQREKEEIEKYRMERPKIQQQFSDLKRKLAEVTEEEWLSIPEVGDARNKRQRNPRYEKLTPVPDSFFAKHLQTGENHTSVDPRQTQFGGLNTPYPGGLNTPYPGGMTPGLMTPGTGELDMRKIGQARNTLMDMRLSQVSDSVSGQTVVDPKGYLTDLNSMIPTHGGDINDIKKARLLLKSVRETNPHHPPAWIASARLEEVTGKLQVARNLIMKGTEMCPKSEDVWLEAARLQPGDTAKAVVAQAVRHLPQSVRIYIRAAELETDIRAKKRVLRKALEHVPNSVRLWKAAVELEEPEDARIMLSRAVECCPTSVELWLALARLETYENARKVLNKARENIPTDRHIWITAAKLEEANGNTQMVEKIIDRAITSLRANGVEINREQWIQDAEECDRAGSVATCQAVMRAVIGIGIEEEDRKHTWMEDADSCVAHNALECARAIYAYALQVFPSKKSVWLRAAYFEKNHGTRESLEALLQRAVAHCPKAEVLWLMGAKSKWLAGDVPAARSILALAFQANPNSEEIWLAAVKLESENDEYERARRLLAKARSSAPTARVFMKSVKLEWVQDNIRAAQDLCEEALRHYEDFPKLWMMKGQIEEQKEMMEKAREAYNQGLKKCPHSTPLWLLLSRLEEKIGQLTRARAILEKSRLKNPKNPGLWLESVRLEYRAGLKNIANTLMAKALQECPNSGILWSEAIFLEARPQRRTKSVDALKKCEHDPHVLLAVAKLFWSQRKITKAREWFHRTVKIDSDLGDAWAFFYKFELQHGTEEQQEEVRKRCESAEPRHGELWCAVSKDIANWQKKIGDILRLVAGRIKNTF
	binds	SNW1 (protein, UniProt Q13573 1-536) MALTSFLPAPTQLSQDQLEAEEKARSQRSRQTSLVSSRREPPPYGYRKGWIPRLLEDFGDGGAFPEIHVAQYPLDMGRKKKMSNALAIQVDSEGKIKYDAIARQGQSKDKVIYSKYTDLVPKEVMNADDPDLQRPDEEAIKEITEKTRVALEKSVSQKVAAAMPVRAADKLAPAQYIRYTPSQQGVAFNSGAKQRVIRMVEMQKDPMEPPRFKINKKIPRGPPSPPAPVMHSPSRKMTVKEQQEWKIPPCISNWKNAKGYTIPLDKRLAADGRGLQTVHINENFAKLAEALYIADRKAREAVEMRAQVERKMAQKEKEKHEEKLREMAQKARERRAGIKTHVEKEDGEARERDEIRHDRRKERQHDRNLSRAAPDKRSKLQRNENRDISEVIALGVPNPRTSNEVQYDQRLFNQSKGMDSGFAGGEDEIYNVYDQAWRGGKDMAQSIYRPSKNLDKDMYGDDLEARIKTNRFVPDKEFSGSDRRQRGREGPVQFEEDPFGLDKFLEEAKQHGGSKRPSDSSRPKEHEHEGKKRRKE

Source: paper PMC4521966
